The values that follow come from article doi:10.1101/612408.

Chains of the proteins cited; added tags and fusions are not shown.
UniProt O22467: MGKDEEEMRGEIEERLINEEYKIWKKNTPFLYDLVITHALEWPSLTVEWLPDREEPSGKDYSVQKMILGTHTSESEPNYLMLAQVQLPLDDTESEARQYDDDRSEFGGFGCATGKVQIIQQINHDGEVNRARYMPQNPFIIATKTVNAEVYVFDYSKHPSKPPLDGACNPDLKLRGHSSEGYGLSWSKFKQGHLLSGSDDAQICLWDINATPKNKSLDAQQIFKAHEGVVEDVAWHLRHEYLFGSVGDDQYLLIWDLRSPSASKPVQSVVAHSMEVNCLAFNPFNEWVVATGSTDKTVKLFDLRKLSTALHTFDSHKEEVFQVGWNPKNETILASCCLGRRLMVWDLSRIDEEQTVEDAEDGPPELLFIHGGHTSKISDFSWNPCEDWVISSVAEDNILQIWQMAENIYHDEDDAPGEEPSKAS
UniProt Q9C9X6: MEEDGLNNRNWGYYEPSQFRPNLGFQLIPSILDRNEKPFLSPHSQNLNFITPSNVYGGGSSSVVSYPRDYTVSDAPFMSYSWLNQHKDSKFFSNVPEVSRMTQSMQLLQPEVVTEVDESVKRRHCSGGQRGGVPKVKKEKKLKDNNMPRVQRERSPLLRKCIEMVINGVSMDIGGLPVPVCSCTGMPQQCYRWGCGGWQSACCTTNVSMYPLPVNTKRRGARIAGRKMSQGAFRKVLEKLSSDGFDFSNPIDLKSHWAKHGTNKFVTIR
UniProt P0DKJ8: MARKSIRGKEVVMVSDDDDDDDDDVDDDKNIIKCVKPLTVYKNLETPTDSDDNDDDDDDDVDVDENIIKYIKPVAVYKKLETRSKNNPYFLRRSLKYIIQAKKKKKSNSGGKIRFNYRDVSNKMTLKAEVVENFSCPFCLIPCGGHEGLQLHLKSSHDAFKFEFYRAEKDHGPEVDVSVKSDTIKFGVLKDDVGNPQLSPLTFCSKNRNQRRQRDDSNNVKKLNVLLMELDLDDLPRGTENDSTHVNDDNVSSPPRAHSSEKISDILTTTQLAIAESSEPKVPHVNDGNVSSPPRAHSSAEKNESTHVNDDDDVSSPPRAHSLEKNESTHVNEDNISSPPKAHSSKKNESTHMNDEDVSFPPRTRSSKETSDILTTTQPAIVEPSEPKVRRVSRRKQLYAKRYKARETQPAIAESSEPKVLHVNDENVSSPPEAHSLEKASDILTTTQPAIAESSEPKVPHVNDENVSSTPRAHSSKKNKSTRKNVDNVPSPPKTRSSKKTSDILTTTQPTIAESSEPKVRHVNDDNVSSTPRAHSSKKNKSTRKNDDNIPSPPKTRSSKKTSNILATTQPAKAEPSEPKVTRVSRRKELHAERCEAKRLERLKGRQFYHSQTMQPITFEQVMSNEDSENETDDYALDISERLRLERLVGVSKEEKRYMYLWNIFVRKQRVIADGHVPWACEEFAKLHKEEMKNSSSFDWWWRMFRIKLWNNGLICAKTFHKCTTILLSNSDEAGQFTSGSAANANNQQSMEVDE

Common to all, as to assay: split reporter
Assay [1] has as its target MSI1 (Arabidopsis) (UniProt O22467).
Assay [2] deals with T1, LIKE HETEROCHROMATIN PROTEIN1 (Arabidopsis) (UniProt Q946J8).
T1 sequence: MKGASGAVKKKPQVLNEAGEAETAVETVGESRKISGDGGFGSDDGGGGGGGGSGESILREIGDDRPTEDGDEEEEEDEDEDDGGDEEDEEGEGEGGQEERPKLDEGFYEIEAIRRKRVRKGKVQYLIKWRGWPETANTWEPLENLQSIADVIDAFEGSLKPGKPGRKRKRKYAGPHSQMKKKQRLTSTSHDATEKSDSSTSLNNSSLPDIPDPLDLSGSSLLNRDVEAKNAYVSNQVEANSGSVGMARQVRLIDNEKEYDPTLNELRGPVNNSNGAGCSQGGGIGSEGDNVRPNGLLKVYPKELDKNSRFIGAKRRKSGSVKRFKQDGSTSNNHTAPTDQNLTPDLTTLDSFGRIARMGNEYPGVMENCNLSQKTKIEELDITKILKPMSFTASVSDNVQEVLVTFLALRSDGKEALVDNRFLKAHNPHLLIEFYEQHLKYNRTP

Assay [3] has as its target T2, FIERY (FIE) (Arabidopsis) (UniProt Q9LT47).
T2 sequence: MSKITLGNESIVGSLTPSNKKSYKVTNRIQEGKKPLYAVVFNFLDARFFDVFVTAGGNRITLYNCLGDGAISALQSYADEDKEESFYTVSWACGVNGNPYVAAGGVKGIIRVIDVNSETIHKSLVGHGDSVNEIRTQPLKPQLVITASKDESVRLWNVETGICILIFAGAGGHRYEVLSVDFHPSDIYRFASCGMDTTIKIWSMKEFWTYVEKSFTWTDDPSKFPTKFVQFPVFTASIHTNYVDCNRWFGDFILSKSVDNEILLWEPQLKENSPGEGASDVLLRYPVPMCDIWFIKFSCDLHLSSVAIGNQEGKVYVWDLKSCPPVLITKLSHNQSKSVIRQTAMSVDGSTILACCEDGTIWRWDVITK

Assay [4] has as its target T3, MEA (Arabidopsis) (UniProt O65312).
T3 sequence: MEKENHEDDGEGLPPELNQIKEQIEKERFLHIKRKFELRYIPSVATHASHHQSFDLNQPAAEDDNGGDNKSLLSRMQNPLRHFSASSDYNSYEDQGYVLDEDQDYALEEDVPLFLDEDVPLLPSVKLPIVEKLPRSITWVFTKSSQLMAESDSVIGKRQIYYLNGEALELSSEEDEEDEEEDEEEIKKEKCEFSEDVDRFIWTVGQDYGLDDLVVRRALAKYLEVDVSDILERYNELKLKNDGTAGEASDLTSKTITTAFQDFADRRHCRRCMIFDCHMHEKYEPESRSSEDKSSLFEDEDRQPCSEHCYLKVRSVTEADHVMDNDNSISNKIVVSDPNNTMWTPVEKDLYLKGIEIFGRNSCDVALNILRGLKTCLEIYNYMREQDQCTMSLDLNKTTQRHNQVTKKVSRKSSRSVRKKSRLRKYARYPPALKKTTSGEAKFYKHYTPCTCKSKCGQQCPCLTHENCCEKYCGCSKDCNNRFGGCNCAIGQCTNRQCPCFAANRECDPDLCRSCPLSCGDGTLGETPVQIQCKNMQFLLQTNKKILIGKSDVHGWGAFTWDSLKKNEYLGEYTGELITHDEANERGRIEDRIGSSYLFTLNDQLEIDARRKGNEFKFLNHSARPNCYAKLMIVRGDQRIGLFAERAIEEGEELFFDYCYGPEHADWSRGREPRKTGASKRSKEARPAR

Assay [5] concerns the target BPC3 (Arabidopsis) (UniProt Q9C9X6).
The target in assay [6] is FIS2 (Arabidopsis) (UniProt P0DKJ8).
In assay [7] the target is T4, BPC1 (Arabidopsis) (UniProt Q9SKD0).
T4 sequence: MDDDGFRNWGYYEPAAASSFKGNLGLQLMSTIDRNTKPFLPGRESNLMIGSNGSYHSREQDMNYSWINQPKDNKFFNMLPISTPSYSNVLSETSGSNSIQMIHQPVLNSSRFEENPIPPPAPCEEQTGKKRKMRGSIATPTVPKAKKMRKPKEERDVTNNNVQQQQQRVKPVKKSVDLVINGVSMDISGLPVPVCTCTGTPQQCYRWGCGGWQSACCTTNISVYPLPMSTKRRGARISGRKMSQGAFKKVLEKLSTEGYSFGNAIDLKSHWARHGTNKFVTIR

The target in assay [8] is T5, BPC2 (Arabidopsis) (UniProt Q9LDE2).
T5 sequence: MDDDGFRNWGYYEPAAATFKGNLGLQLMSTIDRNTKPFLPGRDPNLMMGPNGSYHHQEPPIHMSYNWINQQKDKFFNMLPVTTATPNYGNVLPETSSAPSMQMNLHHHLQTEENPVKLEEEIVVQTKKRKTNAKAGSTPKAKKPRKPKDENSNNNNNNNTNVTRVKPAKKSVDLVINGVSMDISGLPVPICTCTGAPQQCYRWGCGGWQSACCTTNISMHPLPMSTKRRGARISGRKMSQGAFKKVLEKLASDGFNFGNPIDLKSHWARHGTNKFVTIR

Results are given in words; binding and its absence hold for the method and conditions named. In cells and extracts the contact can be indirect. Some binding calls cover weakened binding; strength is not graded here. For some of these results: Where a sequence is shown, tags or fusion partners need not be part of it.

On to BPC3 (from UniProt Q9C9X6 1-269), for which the binding entry is reported as “binds” in assay [1]; “no binding” in assay [2]; “no binding” in assay [3]; “binds” in assay [4]; “binds” in assay [5]; “binds” in assay [6].

B1: BPC1 (protein, UniProt Q9SKD0 1-283)
chain: MDDDGFRNWGYYEPAAASSFKGNLGLQLMSTIDRNTKPFLPGRESNLMIGSNGSYHSREQDMNYSWINQPKDNKFFNMLPISTPSYSNVLSETSGSNSIQMIHQPVLNSSRFEENPIPPPAPCEEQTGKKRKMRGSIATPTVPKAKKMRKPKEERDVTNNNVQQQQQRVKPVKKSVDLVINGVSMDISGLPVPVCTCTGTPQQCYRWGCGGWQSACCTTNISVYPLPMSTKRRGARISGRKMSQGAFKKVLEKLSTEGYSFGNAIDLKSHWARHGTNKFVTIR
For the molecule B1, the binding result in assay [1] is reported as “binds”; in assay [2] it was “no binding”; in assay [3] it was “binds”; in assay [4] it was “binds”; in assay [5], “binds”; in assay [6], “binds”. Further, the binding entry was “no binding” in assay [7] and “binds” in assay [8].

B2: FUSCA3 (protein, UniProt Q9LW31 1-313)
chain: MMVDENVETKASTLVASVDHGFGSGSGHDHHGLSASVPLLGVNWKKRRMPRQRRSSSSFNLLSFPPPMPPISHVPTPLPARKIDPRKLRFLFQKELKNSDVSSLRRMILPKKAAEAHLPALECKEGIPIRMEDLDGFHVWTFKYRYWPNNNSRMYVLENTGDFVNAHGLQLGDFIMVYQDLYSNNYVIQARKASEEEEVDVINLEEDDVYTNLTRIENTVVNDLLLQDFNHHNNNNNNNSNSNSNKCSYYYPVIDDVTTNTESFVYDTTALTSNDTPLDFLGGHTTTTNNYYSKFGTFDGLGSVENISLDDFY
Turning to B2, the binding entry in assay [1], in assay [3], in assay [4], in assay [5], in assay [6] and in assay [7] was “no binding” in each case. The binding result in assay [8] is “no binding”.

B3: BPC2 (protein, UniProt Q9LDE2 1-279)
chain: MDDDGFRNWGYYEPAAATFKGNLGLQLMSTIDRNTKPFLPGRDPNLMMGPNGSYHHQEPPIHMSYNWINQQKDKFFNMLPVTTATPNYGNVLPETSSAPSMQMNLHHHLQTEENPVKLEEEIVVQTKKRKTNAKAGSTPKAKKPRKPKDENSNNNNNNNTNVTRVKPAKKSVDLVINGVSMDISGLPVPICTCTGAPQQCYRWGCGGWQSACCTTNISMHPLPMSTKRRGARISGRKMSQGAFKKVLEKLASDGFNFGNPIDLKSHWARHGTNKFVTIR
Turning to B3, the binding entry in assay [1] was “binds”; in assay [2], “no binding”; in assay [3], “binds”; in assay [4] it was “binds”; in assay [5] it was “binds”; in assay [6], “binds”. Moreover, the binding entry in assay [8] was “binds”.
